At least one structure is not confirmed: it was looked up by name or label, or the drawing left a doubt. Bridge positions count the residues as written; N and C are the ends. Square brackets hold non-standard residues; d marks the D form. Peptide text beside a SMILES is read from it. S5 = C=CCCC[C@](C)(N)C(=O)O; Nle = CCCC[C@H](N)C(=O)O
The compounds below were run against BCL-XL (Homo sapiens, UniProt Q07817) (assay: BCL-XL binding KD).

By UniProt entry, the sequences of proteins in these tests, tags left out.
UniProt Q07817, whole entry, looked up: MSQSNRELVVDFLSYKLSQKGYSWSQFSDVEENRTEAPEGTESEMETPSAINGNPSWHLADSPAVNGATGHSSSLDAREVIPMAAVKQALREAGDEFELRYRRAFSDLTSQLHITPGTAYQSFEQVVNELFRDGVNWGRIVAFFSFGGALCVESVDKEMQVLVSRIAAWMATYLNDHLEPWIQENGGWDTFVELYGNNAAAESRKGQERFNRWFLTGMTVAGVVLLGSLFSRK

| SMILES | Kd |
| --- | --- |
| CCCC[C@@H]1NC(=O)[C@H](Cc2c[nH]c3ccccc23)NC(=O)[C@H](CC(=O)O)NC(=O)CNC(=O)[C@H](C(C)C)NC(=O)C2(CCCC=CCCCCCC[C@@](C)(C(=O)N[C@@H](CO)C(=O)N[C@H](C(N)=O)[C@@H](C)CC)NC(=O)[C@H](CC(=O)O)NC1=O)CCCC=CCCC[C@](C)(NC(=O)[C@H](C)NC(=O)[C@@H](NC(=O)[C@H](CC(N)=O)NC(=O)[C@H](CCCNC(=N)N)NC(=O)[C@@H](NC(=O)[C@@H](NC(=O)[C@H](CC(=O)O)NC(=O)[C@H](CCC(=O)O)NC(C)=O)[C@@H](C)CC)[C@@H](C)CC)[C@@H](C)CC)C(=O)N[C@@H](Cc1c[nH]cn1)C(=O)N[C@@H](CC(C)C)C(=O)N[C@@H](C)C(=O)N2 (some centres unmarked) [SAHBa stitched 22-mer (32), EDIIR NIA S5 HLA B5 VGD W NLD S8 SI] | 59 nM |
| CCCC[C@@H]1NC(=O)[C@H](Cc2c[nH]c3ccccc23)NC(=O)[C@H](CC(=O)O)NC(=O)CNC(=O)[C@H](C(C)C)NC(=O)C2(CCCC=CCCCCCC[C@@](C)(C(N)=O)NC(=O)[C@H](CC(=O)O)NC1=O)CCCC=CCCC[C@](C)(NC(=O)[C@H](C)NC(=O)[C@@H](NC(=O)[C@H](CC(N)=O)NC(C)=O)[C@@H](C)CC)C(=O)N[C@@H](Cc1c[nH]cn1)C(=O)N[C@@H](CC(C)C)C(=O)N[C@@H](C)C(=O)N2 (some centres unmarked) [SAHBa stitched 15-mer (34), NIA S5 HLA B5 VGD W NLD S8] | 150 nM |
| CCCC[C@H](NC(=O)[C@]1(C)CCCC=CCCC[C@](C)(NC(=O)[C@H](C)NC(=O)[C@H](CC(C)C)NC(=O)[C@H](Cc2c[nH]cn2)NC(=O)[C@H](CCCNC(=N)N)NC(=O)[C@H](C)NC(=O)[C@@H](NC(=O)[C@H](CC(N)=O)NC(C)=O)[C@@H](C)CC)C(=O)N[C@@H](C(C)C)C(=O)NCC(=O)N[C@@H](CC(=O)O)C(=O)N1)C(=O)N[C@@H](CC(=O)O)C(=O)N[C@@H](CCCNC(=N)N)C(=O)N[C@@H](CO)C(=O)N[C@H](C(=O)N[C@@H](Cc1c[nH]c2ccccc12)C(N)=O)[C@@H](C)CC [SAHBa 18-mer (31), NIA R HLA S5 VGD S5 NLD R SIW] (Ac-NIARHLA[S5]VGD[S5][Nle]DRSIW-NH2; staple 8-12; N-terminus and C-terminus assumed) | 63 nM |
| CCCC[C@H](NC(=O)[C@]1(C)CCCC=CCCC[C@](C)(NC(=O)[C@H](C)NC(=O)[C@H](CC(C)C)NC(=O)[C@H](Cc2c[nH]cn2)NC(=O)[C@H](CCCNC(=N)N)NC(=O)[C@H](C)NC(=O)[C@@H](NC(=O)[C@H](CC(N)=O)NC(=O)[C@H](CCCNC(=N)N)NC(=O)[C@@H](NC(=O)[C@@H](NC(=O)[C@H](CC(=O)O)NC(=O)[C@H](CCC(=O)O)NC(C)=O)[C@@H](C)CC)[C@@H](C)CC)[C@@H](C)CC)C(=O)N[C@@H](C(C)C)C(=O)NCC(=O)N[C@@H](CC(=O)O)C(=O)N1)C(=O)N[C@@H](CC(=O)O)C(=O)N[C@@H](CCCNC(=N)N)C(=O)N[C@@H](CO)C(=O)N[C@H](C(=O)N[C@@H](Cc1c[nH]c2ccccc12)C(N)=O)[C@@H](C)CC [SAHBa 23-mer (30), EDIIR NIA R HLA S5 VGD S5 NLD R SIW] | 39 nM |
| CCCC[C@@H]1NC(=O)[C@H](Cc2c[nH]c3ccccc23)NC(=O)[C@H](CC(=O)O)NC(=O)CNC(=O)[C@H](C(C)C)NC(=O)C2(CCCC=CCCCCCC[C@@](C)(C(=O)N[C@@H](CO)C(=O)N[C@H](C(N)=O)[C@@H](C)CC)NC(=O)[C@H](CC(=O)O)NC1=O)CCCC=CCCC[C@](C)(NC(=O)[C@H](C)NC(=O)[C@@H](NC(=O)[C@H](CC(N)=O)NC(C)=O)[C@@H](C)CC)C(=O)N[C@@H](Cc1c[nH]cn1)C(=O)N[C@@H](CC(C)C)C(=O)N[C@@H](C)C(=O)N2 (some centres unmarked) [SAHBa stitched 17-mer (33), NIA S5 HLA B5 VGD W NLD S8 SI] | 49 nM |

— patent US10301351B2, “Stitched polypeptides” (President and Fellows of Harvard College, priority 2007, dated 2019)
